## Assay results

The results are deposited in PubChem (AID504749; NCATS, 2011).

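Malaria parasite (P. falciparum) lines kept in red blood cells; parasite DNA is measured by SYBR Green fluorescence after lysis, 72 h after compound addition. Each compound was titrated across a series from about 0.000037 to 29 µM. The number is the fitted AC50, the concentration giving a half-maximal change in signal; a lower value means higher potency, whether the curve shows a decrease or an increase. Calls follow the curve class and fit quality: every row here is inconclusive, covering signal-raising curves and weak, poorly fitted, partial or highest-dose-only inhibition curves.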

Values are in nM. Every entry below has the call inconclusive. These entries are mostly ones the record files as inconclusive; other results of the assay are not listed here. A potency from a partial, single-point or poor curve is only a rough figure.

structure: O=C(O)c1cc(O)c(O)c(O)c1
setting: Dd2
fitted potency (nM): 19952
curve as filed: inhibitor, single point

structure: O=C(O)c1cc(O)c(O)c(O)c1
setting: 7G8
fitted potency (nM): 12589
curve as filed: inhibitor, single point

structure: O=C(O)c1cc(O)c(O)c(O)c1
setting: CP247
fitted potency (nM): 10000
curve as filed: inhibitor, single point

structure: O=C(O)c1cc(O)c(O)c(O)c1
setting: FAB9
fitted potency (nM): 17782
curve as filed: inhibitor, single point

structure: O=C(O)c1cc(O)c(O)c(O)c1
setting: JCK
fitted potency (nM): 10000
curve as filed: inhibitor, single point

structure: O=C(O)c1cc(O)c(O)c(O)c1
setting: 3D7
fitted potency (nM): 8912
curve as filed: inhibitor, partial curve

structure: O=C(O)c1cc(O)c(O)c(O)c1
setting: CP191
fitted potency (nM): 10000
curve as filed: inhibitor, single point

structure: O=C(O)c1cc(O)c(O)c(O)c1
setting: TAB113
fitted potency (nM): 17782
curve as filed: inhibitor, single point

structure: O=C(O)c1cc(O)c(O)c(O)c1
setting: DIV14
fitted potency (nM): 15101
curve as filed: inhibitor, partial curve

structure: O=C(O)c1cc(O)c(O)c(O)c1
setting: GB4
fitted potency (nM): 11995
curve as filed: inhibitor, partial curve

structure: O=C(O)c1cc(O)c(O)c(O)c1
setting: P93_24
fitted potency (nM): 17782
curve as filed: inhibitor, single point

structure: O=C(O)c1cc(O)c(O)c(O)c1
setting: DIV17
fitted potency (nM): 15101
curve as filed: inhibitor, partial curve

structure: CCC(C(=O)OCCOCCN(CC)CC)c1ccccc1 (stereo not shown)
setting: GB4
fitted potency (nM): 8492
curve as filed: inhibitor, partial curve

structure: CCC(C(=O)OCCOCCN(CC)CC)c1ccccc1 (stereo not shown)
setting: CP335
fitted potency (nM): 13459
curve as filed: inhibitor, partial curve, poor fit

structure: CCC(C(=O)OCCOCCN(CC)CC)c1ccccc1 (stereo not shown)
setting: CP194
fitted potency (nM): 15101
curve as filed: inhibitor, single point

structure: CCC(C(=O)OCCOCCN(CC)CC)c1ccccc1 (stereo not shown)
setting: CP203
fitted potency (nM): 16944
curve as filed: inhibitor, single point

structure: CCC(C(=O)OCCOCCN(CC)CC)c1ccccc1 (stereo not shown)
setting: CP265
fitted potency (nM): 5012
curve as filed: inhibitor, partial curve

structure: CCC(C(=O)OCCOCCN(CC)CC)c1ccccc1 (stereo not shown)
setting: DIV17
fitted potency (nM): 9528
curve as filed: inhibitor, partial curve, poor fit

structure: OCCN1CCN(CCCN2c3ccccc3Sc3ccc(Cl)cc32)CC1
setting: HB3
fitted potency (nM): 3548
curve as filed: inhibitor, single point

structure: OCCN1CCN(CCCN2c3ccccc3Sc3ccc(Cl)cc32)CC1
setting: CP269
fitted potency (nM): 8087
curve as filed: inhibitor, single point

structure: OCCN1CCN(CCCN2c3ccccc3Sc3ccc(Cl)cc32)CC1
setting: PC26
fitted potency (nM): 5726
curve as filed: inhibitor, partial curve

structure: OCCN1CCN(CCCN2c3ccccc3Sc3ccc(Cl)cc32)CC1
setting: CP291
fitted potency (nM): 5726
curve as filed: inhibitor, single point

structure: OCCN1CCN(CCCN2c3ccccc3Sc3ccc(Cl)cc32)CC1
setting: CP203
fitted potency (nM): 8087
curve as filed: inhibitor, single point

structure: OCCN1CCN(CCCN2c3ccccc3Sc3ccc(Cl)cc32)CC1
setting: CP329
fitted potency (nM): 6424
curve as filed: inhibitor, single point

structure: OCCN1CCN(CCCN2c3ccccc3Sc3ccc(Cl)cc32)CC1
setting: CP194
fitted potency (nM): 4548
curve as filed: inhibitor, partial curve

structure: OCCN1CCN(CCCN2c3ccccc3Sc3ccc(Cl)cc32)CC1
setting: PC49
fitted potency (nM): 4467
curve as filed: inhibitor, single point

structure: OCCN1CCN(CCCN2c3ccccc3Sc3ccc(Cl)cc32)CC1
setting: FAB9
fitted potency (nM): 6310
curve as filed: inhibitor, single point